Measurements from the supplement of paper PMC10849652.
Some of the results follow.

Chains of the proteins cited; added tags and fusions are not shown. Lines headed by an entry give the natural chain unless they say otherwise; changes in a name come on top.
UniProt Q5T3I0: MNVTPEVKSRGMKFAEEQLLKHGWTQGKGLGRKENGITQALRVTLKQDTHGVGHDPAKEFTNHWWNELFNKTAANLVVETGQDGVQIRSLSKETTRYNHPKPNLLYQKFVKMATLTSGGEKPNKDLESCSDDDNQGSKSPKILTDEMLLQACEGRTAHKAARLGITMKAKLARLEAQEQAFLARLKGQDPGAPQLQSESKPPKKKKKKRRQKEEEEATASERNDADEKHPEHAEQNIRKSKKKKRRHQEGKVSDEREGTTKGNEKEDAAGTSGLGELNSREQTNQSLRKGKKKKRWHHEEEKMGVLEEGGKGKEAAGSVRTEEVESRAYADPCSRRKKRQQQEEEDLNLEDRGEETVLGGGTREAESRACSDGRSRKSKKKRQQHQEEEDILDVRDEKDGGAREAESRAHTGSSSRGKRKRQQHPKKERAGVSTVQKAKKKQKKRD
UniProt O15228: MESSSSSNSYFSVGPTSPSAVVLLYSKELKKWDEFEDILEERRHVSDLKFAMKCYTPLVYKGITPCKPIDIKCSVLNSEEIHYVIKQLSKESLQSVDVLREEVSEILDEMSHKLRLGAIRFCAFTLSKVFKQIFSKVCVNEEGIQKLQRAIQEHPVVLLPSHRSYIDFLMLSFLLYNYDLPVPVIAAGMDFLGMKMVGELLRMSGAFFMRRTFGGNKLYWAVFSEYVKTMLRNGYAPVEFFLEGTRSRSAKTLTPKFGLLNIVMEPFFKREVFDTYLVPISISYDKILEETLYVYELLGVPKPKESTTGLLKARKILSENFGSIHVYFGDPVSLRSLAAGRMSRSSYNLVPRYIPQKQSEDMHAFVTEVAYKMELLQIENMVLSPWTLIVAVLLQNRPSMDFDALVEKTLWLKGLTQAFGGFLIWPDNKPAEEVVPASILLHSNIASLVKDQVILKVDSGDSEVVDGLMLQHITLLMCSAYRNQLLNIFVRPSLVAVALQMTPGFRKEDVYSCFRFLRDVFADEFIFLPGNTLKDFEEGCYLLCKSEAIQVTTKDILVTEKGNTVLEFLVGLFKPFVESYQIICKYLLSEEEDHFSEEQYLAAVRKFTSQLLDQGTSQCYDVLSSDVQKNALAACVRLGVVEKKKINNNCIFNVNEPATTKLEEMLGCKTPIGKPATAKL
UniProt Q53EU6: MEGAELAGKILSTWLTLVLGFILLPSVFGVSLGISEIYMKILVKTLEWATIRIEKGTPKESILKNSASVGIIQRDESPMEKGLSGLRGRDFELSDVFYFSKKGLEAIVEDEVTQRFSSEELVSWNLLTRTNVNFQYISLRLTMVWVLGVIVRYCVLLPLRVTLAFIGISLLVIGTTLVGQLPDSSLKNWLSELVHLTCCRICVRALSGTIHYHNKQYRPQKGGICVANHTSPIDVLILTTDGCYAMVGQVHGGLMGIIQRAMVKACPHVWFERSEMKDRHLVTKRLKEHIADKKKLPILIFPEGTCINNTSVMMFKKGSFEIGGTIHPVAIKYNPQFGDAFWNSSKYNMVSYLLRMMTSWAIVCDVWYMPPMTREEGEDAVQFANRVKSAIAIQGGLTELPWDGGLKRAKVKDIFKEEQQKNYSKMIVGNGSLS
UniProt Q9H3C7, whole entry, looked up: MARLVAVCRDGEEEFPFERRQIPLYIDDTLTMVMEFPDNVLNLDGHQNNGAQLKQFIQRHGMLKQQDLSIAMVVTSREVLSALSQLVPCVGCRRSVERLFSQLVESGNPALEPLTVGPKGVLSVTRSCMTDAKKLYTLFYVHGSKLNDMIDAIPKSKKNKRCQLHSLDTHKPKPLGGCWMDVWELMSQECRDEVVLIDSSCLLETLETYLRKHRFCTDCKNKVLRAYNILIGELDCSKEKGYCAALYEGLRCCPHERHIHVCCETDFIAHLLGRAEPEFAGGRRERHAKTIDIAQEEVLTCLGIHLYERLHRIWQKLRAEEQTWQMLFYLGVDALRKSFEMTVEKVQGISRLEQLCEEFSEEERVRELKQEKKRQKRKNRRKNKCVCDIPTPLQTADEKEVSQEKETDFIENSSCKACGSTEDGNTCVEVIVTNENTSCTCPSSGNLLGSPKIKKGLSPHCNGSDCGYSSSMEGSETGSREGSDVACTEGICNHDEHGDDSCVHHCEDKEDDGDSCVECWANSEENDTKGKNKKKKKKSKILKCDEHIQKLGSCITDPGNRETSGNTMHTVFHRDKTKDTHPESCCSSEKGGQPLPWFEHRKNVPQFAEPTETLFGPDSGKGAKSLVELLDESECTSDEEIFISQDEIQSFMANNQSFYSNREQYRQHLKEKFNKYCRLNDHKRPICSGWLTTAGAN
UniProt P16278: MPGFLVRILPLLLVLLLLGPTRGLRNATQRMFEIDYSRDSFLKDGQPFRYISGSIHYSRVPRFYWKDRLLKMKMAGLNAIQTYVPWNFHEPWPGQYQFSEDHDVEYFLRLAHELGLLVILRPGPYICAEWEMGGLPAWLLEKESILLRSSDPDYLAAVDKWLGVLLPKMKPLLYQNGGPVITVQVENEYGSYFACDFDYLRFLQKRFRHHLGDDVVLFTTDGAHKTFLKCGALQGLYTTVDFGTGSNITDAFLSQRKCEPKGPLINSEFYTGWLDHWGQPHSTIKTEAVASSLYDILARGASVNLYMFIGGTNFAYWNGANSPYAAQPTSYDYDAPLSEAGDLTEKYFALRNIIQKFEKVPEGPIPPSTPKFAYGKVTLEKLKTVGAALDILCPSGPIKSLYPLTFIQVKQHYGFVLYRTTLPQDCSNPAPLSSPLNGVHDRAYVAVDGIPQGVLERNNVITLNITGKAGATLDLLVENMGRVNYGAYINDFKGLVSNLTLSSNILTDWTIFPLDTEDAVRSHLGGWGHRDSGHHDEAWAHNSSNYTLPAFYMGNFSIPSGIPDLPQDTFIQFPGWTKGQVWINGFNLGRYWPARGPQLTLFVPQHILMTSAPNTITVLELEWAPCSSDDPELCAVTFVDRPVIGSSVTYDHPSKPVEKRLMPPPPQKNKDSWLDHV
UniProt P60983, whole entry, looked up: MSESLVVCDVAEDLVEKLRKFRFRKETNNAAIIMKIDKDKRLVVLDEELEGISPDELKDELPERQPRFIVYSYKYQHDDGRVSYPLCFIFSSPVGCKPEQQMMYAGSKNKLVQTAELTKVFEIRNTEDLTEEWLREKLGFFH
UniProt Q9UJ14: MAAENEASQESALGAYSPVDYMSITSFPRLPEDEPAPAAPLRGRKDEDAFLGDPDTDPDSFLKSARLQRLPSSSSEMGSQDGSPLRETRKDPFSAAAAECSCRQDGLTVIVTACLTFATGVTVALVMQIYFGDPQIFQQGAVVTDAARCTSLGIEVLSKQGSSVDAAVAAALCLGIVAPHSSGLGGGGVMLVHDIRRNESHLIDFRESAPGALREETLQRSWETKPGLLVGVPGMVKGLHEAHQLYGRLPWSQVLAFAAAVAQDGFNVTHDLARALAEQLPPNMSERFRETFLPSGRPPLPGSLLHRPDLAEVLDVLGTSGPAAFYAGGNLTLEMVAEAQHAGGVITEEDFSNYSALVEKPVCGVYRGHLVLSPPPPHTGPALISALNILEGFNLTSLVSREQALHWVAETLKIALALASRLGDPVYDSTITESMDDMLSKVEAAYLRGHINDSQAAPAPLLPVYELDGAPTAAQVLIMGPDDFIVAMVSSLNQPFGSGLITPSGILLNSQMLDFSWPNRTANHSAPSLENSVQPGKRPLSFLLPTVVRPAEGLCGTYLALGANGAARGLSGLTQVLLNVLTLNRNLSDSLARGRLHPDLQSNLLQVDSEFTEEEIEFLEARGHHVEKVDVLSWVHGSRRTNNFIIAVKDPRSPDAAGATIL
UniProt P63218: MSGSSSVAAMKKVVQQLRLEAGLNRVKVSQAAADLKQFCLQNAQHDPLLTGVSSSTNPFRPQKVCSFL
UniProt P49915: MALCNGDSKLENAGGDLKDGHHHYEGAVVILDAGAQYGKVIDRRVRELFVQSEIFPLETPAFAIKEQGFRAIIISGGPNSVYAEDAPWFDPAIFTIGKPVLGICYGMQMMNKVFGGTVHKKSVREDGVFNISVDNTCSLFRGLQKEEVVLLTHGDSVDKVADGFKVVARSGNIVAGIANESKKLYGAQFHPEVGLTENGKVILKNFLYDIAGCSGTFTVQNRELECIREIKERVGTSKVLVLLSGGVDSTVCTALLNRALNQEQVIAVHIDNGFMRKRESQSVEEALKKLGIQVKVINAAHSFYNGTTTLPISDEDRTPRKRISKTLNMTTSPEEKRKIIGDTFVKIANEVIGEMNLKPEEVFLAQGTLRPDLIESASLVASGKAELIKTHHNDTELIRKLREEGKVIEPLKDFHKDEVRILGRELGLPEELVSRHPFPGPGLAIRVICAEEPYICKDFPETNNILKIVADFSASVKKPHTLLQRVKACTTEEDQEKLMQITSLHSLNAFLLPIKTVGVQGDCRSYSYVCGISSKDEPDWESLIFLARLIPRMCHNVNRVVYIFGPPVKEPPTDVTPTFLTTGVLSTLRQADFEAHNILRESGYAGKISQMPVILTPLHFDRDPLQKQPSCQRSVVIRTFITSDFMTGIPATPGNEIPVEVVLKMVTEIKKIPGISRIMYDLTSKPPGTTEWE
UniProt Q9BRT9, whole entry, looked up: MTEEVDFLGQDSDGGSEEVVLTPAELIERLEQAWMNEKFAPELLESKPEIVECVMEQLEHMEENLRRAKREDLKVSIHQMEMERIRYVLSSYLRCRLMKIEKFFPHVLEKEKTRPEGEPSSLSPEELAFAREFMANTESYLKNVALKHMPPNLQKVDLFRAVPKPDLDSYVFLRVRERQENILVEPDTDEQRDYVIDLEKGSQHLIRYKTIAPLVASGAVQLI
UniProt O94923: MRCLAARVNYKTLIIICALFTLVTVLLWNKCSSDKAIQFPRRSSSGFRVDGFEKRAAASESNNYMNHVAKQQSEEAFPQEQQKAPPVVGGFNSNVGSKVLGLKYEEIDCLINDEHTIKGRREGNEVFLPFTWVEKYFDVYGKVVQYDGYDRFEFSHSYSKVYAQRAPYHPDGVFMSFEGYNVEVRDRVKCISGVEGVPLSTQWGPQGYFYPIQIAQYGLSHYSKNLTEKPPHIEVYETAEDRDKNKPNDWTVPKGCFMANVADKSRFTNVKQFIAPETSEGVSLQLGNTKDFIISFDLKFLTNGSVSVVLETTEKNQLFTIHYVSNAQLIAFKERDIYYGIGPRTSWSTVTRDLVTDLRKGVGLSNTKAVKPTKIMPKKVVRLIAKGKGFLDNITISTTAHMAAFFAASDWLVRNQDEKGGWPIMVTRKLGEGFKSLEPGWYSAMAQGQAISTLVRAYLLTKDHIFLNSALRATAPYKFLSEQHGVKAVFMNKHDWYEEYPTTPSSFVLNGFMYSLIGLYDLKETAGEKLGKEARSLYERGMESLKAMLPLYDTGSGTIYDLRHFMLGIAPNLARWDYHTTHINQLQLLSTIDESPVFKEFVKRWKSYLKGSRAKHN
UniProt Q9HC44: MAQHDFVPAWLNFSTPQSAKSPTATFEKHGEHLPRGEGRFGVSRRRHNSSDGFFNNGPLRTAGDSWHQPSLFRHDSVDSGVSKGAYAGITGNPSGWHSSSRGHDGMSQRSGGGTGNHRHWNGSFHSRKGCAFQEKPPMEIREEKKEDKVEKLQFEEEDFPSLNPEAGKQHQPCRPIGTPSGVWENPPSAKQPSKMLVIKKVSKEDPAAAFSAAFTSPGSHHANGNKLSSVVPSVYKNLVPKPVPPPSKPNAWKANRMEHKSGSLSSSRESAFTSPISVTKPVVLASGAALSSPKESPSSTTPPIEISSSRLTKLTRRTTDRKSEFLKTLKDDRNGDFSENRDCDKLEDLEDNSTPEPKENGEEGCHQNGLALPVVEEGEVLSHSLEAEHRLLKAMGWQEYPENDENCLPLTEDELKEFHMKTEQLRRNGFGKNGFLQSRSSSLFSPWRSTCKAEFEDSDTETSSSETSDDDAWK
UniProt P43304: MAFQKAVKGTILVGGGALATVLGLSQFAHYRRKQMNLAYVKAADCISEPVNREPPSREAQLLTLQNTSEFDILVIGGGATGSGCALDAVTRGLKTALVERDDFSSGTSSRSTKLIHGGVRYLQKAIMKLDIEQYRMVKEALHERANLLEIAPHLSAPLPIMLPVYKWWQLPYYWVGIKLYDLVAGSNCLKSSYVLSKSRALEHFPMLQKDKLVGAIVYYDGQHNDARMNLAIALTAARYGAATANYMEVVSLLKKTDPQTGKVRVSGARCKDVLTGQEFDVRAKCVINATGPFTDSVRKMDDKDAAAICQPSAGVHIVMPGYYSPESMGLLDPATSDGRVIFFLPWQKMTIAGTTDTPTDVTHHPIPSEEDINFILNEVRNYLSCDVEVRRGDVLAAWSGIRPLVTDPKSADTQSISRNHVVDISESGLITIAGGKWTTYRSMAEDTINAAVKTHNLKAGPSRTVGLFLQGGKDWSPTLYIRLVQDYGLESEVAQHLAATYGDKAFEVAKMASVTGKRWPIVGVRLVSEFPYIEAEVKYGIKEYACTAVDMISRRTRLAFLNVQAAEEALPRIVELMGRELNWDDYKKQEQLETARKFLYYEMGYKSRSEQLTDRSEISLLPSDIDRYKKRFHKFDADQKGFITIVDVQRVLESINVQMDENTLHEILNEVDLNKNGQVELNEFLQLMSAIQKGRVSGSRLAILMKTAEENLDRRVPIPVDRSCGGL

Key:
Experiment in all cases: log2 fold change, soluble protein after heating vs DMSO (PISA); higher = thermal stabilisation; K562 lysate, 10 uM; active = over 0.2 and 3.5 SD of the protein, either way, in both replicates (recomputed)
nilotinib = compound: Cc1cn(-c2cc(NC(=O)c3ccc(C)c(Nc4nccc(-c5cccnc5)n4)c3)cc(C(F)(F)F)c2)cn1 [nilotinib]
In short: (§1)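 Values give the log-two fold change in thermal stability against solvent controls, from duplicates. Crude K562 extract at 1 mg/mL protein, made by dounce homogenisation in PBS pH 7.4 with 1 mM MgCl2, was treated with 10 μM compound for 30 min. After 3 min heating across 48°C-58°C, aliquots were pooled, adjusted to 0.5% NP-40 at 4°C and centrifuged at 21,000xg for 90 min. The supernatant was measured by TMTpro 16plex LC-MS/MS with channel sums equalised.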

[1] = compound: Cc1nc(Nc2n[nH]c3c2CN(C(=O)N[C@H](CN(C)C)c2ccccc2)C3(C)C)c2sccc2n1
In short: as §1

dasatinib = compound: Cc1nc(Nc2ncc(C(=O)Nc3c(C)cccc3Cl)s2)cc(N2CCN(CCO)CC2)n1 [dasatinib]
In short: as §1

[2] = compound: Cc1ncc(-c2ccnc(Nc3ccc(S(C)(=O)=O)cc3)n2)n1C(C)C
In short: as §1

[3] = compound: Cn1cc(-c2ccc3c(c2)CCN3C(=O)Cc2cccc(C(F)(F)F)c2)c2c(N)ncnc21
In short: as §1

quisinostat = compound: Cn1cc(CNCC2CCN(c3ncc(C(=O)NO)cn3)CC2)c2ccccc21 [quisinostat]
In short: as §1

tipifarnib = compound: Cn1cncc1[C@@](N)(c1ccc(Cl)cc1)c1ccc2c(c1)c(-c1cccc(Cl)c1)cc(=O)n2C [tipifarnib]
In short: as §1

[4] = compound: NC(=O)Nc1cc(-c2cccc(F)c2)sc1C(=O)N[C@H]1CCCNC1
In short: as §1

[5] = compound: NC(=O)c1cnc(N[C@@H]2CCCC[C@@H]2N)nc1Nc1cccc(-n2nccn2)c1
In short: as §1

[6] = compound: NC1(c2ccc(-c3nc4ccn5c(=O)[nH]nc5c4cc3-c3ccccc3)cc2)CCC1
In short: as §1

[7] = compound: NCC(=O)Nc1ccc(-n2nc(C(F)(F)F)cc2-c2ccc3c(ccc4ccccc43)c2)cc1
In short: as §1

vorinostat = compound: O=C(CCCCCCC(=O)Nc1ccccc1)NO [vorinostat]
In short: as §1

silmitasertib = compound: O=C(O)c1ccc2c(c1)nc(Nc1cccc(Cl)c1)c1ccncc12 [silmitasertib]
In short: as §1

[8] = compound: O=C1NC(=O)C(c2cnc3ccccn23)=C1c1cn2c3c(cc(F)cc13)CN(C(=O)N1CCCCC1)CC2
In short: as §1

entospletinib = compound: c1cn2cc(-c3ccc4cn[nH]c4c3)nc(Nc3ccc(N4CCOCC4)cc3)c2n1 [entospletinib]
In short: as §1

Target | log2 fold change (nilotinib) | log2 fold change [1] | log2 fold change (dasatinib) | log2 fold change [2] | log2 fold change [3] | log2 fold change (quisinostat) | log2 fold change (tipifarnib) | log2 fold change [4] | log2 fold change [5] | log2 fold change [6] | log2 fold change [7] | log2 fold change (vorinostat) | log2 fold change (silmitasertib) | log2 fold change [8] | log2 fold change (entospletinib)
GPATCH4 isoform 3 (UniProt Q5T3I0) | inactive: 0.004 | inactive: 0.039 | inactive: 0.036 | inactive: 0.052 | inactive: 0.01 | inactive: -0.09 | inactive: -0.116 | inactive: 0.036 | inactive: -0.074 | inactive: 0.004 | inactive: 0.034 | inactive: -0.011 | inactive: -0.028 | inactive: -0.065 | inactive: 0.058
GNPAT (UniProt O15228) | inactive: 0.003 | inactive: 0.037 | inactive: -0.059 | inactive: 0.021 | inactive: 0.01 | inactive: 0.122 | inactive: -0.08 | inactive: 0.011 | inactive: 0.013 | inactive: -0.062 | inactive: 0.028 | inactive: 0.027 | inactive: 0.026 | inactive: 0.018 | inactive: -0.008
GPAT3 (UniProt Q53EU6) | inactive: -0.038 | inactive: 0.058 | inactive: -0.08 | inactive: 0.018 | inactive: 0.034 | inactive: 0 | inactive: -0.018 | inactive: 0.007 | inactive: 0.019 | inactive: 0.004 | inactive: -0.031 | inactive: 0.019 | inactive: -0.016 | inactive: 0.012 | inactive: -0.039
GLRX3 (UniProt O76003) | inactive: 0.022 | inactive: -0.028 | inactive: 0.011 | inactive: 0.016 | inactive: -0.013 | inactive: 0.004 | inactive: 0.028 | inactive: 0.005 | inactive: -0.038 | inactive: 0.007 | inactive: -0.004 | inactive: -0.165 | inactive: -0.004 | inactive: 0.035 | inactive: 0.026
GGNBP2 (UniProt Q9H3C7) | inactive: -0.044 | inactive: -0.063 | inactive: -0.044 | inactive: 0.035 | inactive: 0.004 | inactive: -0.037 | inactive: 0.094 | inactive: 0.024 | inactive: -0.008 | inactive: 0.047 | inactive: 0.014 | inactive: -0.266 | inactive: -0.046 | inactive: 0.026 | inactive: -0.043
GLB1 (UniProt P16278) | inactive: -0.006 | inactive: 0.03 | inactive: -0.026 | inactive: 0.023 | inactive: 0.003 | inactive: 0.03 | inactive: 0.017 | inactive: -0.016 | inactive: -0.011 | inactive: -0.022 | inactive: 0.003 | inactive: -0.013 | inactive: -0.03 | inactive: -0.043 | inactive: -0.018
GOLIM4 (UniProt O00461) | inactive: 0.058 | inactive: -0.058 | inactive: -0.004 | inactive: -0.046 | inactive: -0.024 | inactive: 0.061 | inactive: 0.03 | inactive: -0.029 | inactive: 0.005 | inactive: -0.011 | inactive: 0.006 | inactive: 0.107 | inactive: -0.023 | inactive: -0.022 | inactive: 0.029
GHDC (UniProt Q8N2G8) | inactive: -0.031 | inactive: -0.04 | inactive: -0.135 | inactive: 0.034 | inactive: -0.04 | inactive: -0.033 | inactive: 0.039 | inactive: 0.013 | inactive: 0.006 | inactive: 0.019 | inactive: -0.143 | inactive: -0.04 | inactive: -0.001 | inactive: 0.008 | inactive: -0.03
GMFB (UniProt P60983) | inactive: 0.049 | inactive: 0.037 | inactive: 0.052 | inactive: -0.016 | inactive: 0.019 | inactive: 0.033 | inactive: 0.046 | inactive: 0.028 | inactive: -0.018 | inactive: -0.034 | inactive: -0.081 | inactive: 0.141 | inactive: -0.002 | inactive: -0.008 | inactive: -0.004
GGT7 (UniProt Q9UJ14) | inactive: -0.061 | inactive: -0.023 | inactive: -0.083 | inactive: 0.014 | inactive: -0.012 | inactive: 0.092 | inactive: -0.008 | inactive: 0.071 | inactive: 0.007 | inactive: 0.02 | inactive: -0.094 | active: 0.244 | inactive: -0.017 | inactive: 0.015 | inactive: -0.056
GPATCH1 (UniProt Q9BRR8) | inactive: 0.032 | inactive: -0.133 | inactive: 0.102 | inactive: 0.042 | inactive: 0.018 | inactive: 0.018 | inactive: -0.074 | inactive: -0.007 | inactive: 0.027 | inactive: 0.075 | inactive: 0.029 | inactive: -0.036 | inactive: -0.054 | inactive: -0.041 | inactive: 0.035
GNG5 (UniProt P63218) | inactive: 0.084 | inactive: -0.051 | inactive: 0.051 | inactive: 0.133 | inactive: 0.001 | inactive: 0.064 | inactive: -0.07 | inactive: -0.084 | inactive: -0.023 | inactive: 0.049 | inactive: -0.11 | inactive: -0.022 | inactive: -0.126 | inactive: 0.035 | inactive: 0.011
GMPS (UniProt P49915) | inactive: -0.006 | inactive: -0.019 | inactive: -0.016 | inactive: 0 | inactive: 0 | inactive: 0.041 | inactive: -0.008 | inactive: 0.001 | inactive: 0.001 | inactive: 0.009 | inactive: 0.017 | active: -0.553 | inactive: 0.028 | inactive: 0.002 | inactive: 0.01
GINS4 (UniProt Q9BRT9) | inactive: -0.019 | inactive: -0.009 | inactive: 0.01 | inactive: -0.007 | inactive: 0.015 | inactive: -0.004 | inactive: -0.014 | inactive: 0.012 | inactive: 0.001 | inactive: -0.035 | inactive: -0.02 | inactive: 0.048 | inactive: -0.032 | inactive: -0.019 | inactive: -0.018
GLCE (UniProt O94923) | inactive: -0.035 | inactive: 0.076 | inactive: -0.033 | inactive: -0.042 | inactive: -0.104 | inactive: -0.04 | inactive: 0.025 | inactive: 0.021 | inactive: 0.054 | inactive: -0.002 | – | inactive: -0.077 | inactive: -0.011 | inactive: 0.118 | inactive: -0.032
GPBP1L1 (UniProt Q9HC44) | – | – | inactive: -0.017 | – | inactive: 0.047 | inactive: -0.112 | – | inactive: 0.025 | inactive: 0.102 | inactive: 0.07 | inactive: 0.002 | inactive: -0.152 | inactive: 0.06 | inactive: -0.045 | inactive: -0.051
GPR68 (UniProt Q15743) | – | – | – | – | – | inactive: 0.098 | – | inactive: -0.026 | – | – | – | – | – | inactive: -0.037 | –
GPD2 (UniProt P43304) | inactive: 0.051 | inactive: -0.001 | inactive: 0.025 | inactive: 0.001 | inactive: 0.036 | inactive: 0.012 | inactive: -0.004 | inactive: -0.027 | inactive: -0.011 | inactive: -0.006 | inactive: 0 | inactive: 0.163 | inactive: -0.004 | inactive: -0.009 | inactive: -0.003

Reformatted in markdown: part of the list above.

| Target | log2 fold change (nilotinib) | log2 fold change [1] | log2 fold change (dasatinib) | log2 fold change [2] | log2 fold change [3] | log2 fold change (quisinostat) | log2 fold change (tipifarnib) | log2 fold change [4] | log2 fold change [5] | log2 fold change [6] | log2 fold change [7] | log2 fold change (vorinostat) | log2 fold change (silmitasertib) | log2 fold change [8] | log2 fold change (entospletinib) |
| --- | --- | --- | --- | --- | --- | --- | --- | --- | --- | --- | --- | --- | --- | --- | --- |
| GPAT3 (UniProt Q53EU6) | inactive: -0.038 | inactive: 0.058 | inactive: -0.08 | inactive: 0.018 | inactive: 0.034 | inactive: 0 | inactive: -0.018 | inactive: 0.007 | inactive: 0.019 | inactive: 0.004 | inactive: -0.031 | inactive: 0.019 | inactive: -0.016 | inactive: 0.012 | inactive: -0.039 |
| GGNBP2 (UniProt Q9H3C7) | inactive: -0.044 | inactive: -0.063 | inactive: -0.044 | inactive: 0.035 | inactive: 0.004 | inactive: -0.037 | inactive: 0.094 | inactive: 0.024 | inactive: -0.008 | inactive: 0.047 | inactive: 0.014 | inactive: -0.266 | inactive: -0.046 | inactive: 0.026 | inactive: -0.043 |
